Measurements taken from PubChem BioAssay AID504327 (National Center for Advancing Translational Sciences (NCATS), 2011).
In all, about 390,000 compounds went through this assay and about 820 (0.21%) were called active. Inconclusive means that the source gave no clear call. Such entries were picked first, then a sample of the others. Calls come from the whole dose curve; as a rule, active = well fitted inhibition curve with a large enough effect; inconclusive = small, poorly fitted or top-dose-only effect, or another doubt; inactive = no such curve, though single readings can be large or run the other way. Potencies of inconclusive entries are doubtful fits and often do not repeat. The source holds several records for some structures; these can differ, active in one and inactive in another.
Potency is the fitted concentration of half-maximal effect.

Amino acid sequences for entries named in this document (tags omitted).
UniProt Q92830, whole entry, looked up: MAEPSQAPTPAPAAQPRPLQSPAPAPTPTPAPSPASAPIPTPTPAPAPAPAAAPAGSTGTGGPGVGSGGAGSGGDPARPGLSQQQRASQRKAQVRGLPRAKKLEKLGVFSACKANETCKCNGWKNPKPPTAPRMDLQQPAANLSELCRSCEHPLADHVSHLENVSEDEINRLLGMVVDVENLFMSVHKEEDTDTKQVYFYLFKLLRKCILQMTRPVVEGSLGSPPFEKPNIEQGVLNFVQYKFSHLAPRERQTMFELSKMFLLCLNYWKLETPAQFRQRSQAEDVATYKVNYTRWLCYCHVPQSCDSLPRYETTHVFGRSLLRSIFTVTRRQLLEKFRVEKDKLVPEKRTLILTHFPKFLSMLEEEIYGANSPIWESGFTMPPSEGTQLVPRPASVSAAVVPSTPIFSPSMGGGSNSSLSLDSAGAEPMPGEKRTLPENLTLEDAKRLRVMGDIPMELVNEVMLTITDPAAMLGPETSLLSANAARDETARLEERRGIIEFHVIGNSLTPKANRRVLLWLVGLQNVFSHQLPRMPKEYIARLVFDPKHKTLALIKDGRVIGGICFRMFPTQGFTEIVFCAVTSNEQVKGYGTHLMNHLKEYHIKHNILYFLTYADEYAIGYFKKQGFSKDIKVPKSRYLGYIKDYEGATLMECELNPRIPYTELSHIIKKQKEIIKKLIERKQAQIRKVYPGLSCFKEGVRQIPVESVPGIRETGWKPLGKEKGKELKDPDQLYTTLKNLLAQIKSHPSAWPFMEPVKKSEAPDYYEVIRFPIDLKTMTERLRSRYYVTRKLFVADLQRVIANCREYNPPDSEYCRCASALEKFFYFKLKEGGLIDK

Each molecule was assayed against Histone acetyltransferase KAT2A (Homo sapiens) (UniProt Q92830) (assay: qHTS Assay for Inhibitors of GCN5L2). Conditions: GCN5L2 HAT assay, ThioGlo1 CoA-SH fluorescence; series mostly up to 58.9 µM.
Outline: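 Enzyme at 20nM final was mixed with library compounds for 15 min at room temperature. Peptide H3(1-25) at 75uM, acetyl-CoA at 70uM and ThioGlo1 at 50uM were then added. Plates were read immediately and after 20 min (Ex340nm/Em540nm).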
For CCCc1cc(C(=O)Cc2ccc(C(=O)OCC)o2)c(O)cc1O, the Potency was inconclusive: 31.6 µM [inhibitor, single point]. With COc1ccc(S(=O)(=O)N2CCN(CC(=O)Nc3ccc(C)c(F)c3)CC2)cc1 the Potency was inconclusive: 39.8 µM [inhibitor, single point]. With Cc1ccc(-c2nc(=S)c3c(n2Cc2ccco2)CC(C)(C)OC3)cc1 the Potency was “inactive”. With O=c1cc(-c2ccccc2)c2c(O)cc(O)cc2o1 the Potency was inconclusive: 39.8 µM [inhibitor, single point]. In the case of CC(C)(C)C(=O)NNC(=O)c1cnccn1, the Potency is reported as inconclusive: 1 µM [inhibitor, full curve, poor fit]. COc1ccccc1-c1cc(C(=O)N/N=C/c2ccc(C)o2)c2ccccc2n1 was tested, and the Potency was inconclusive: 20 µM [inhibitor, single point]. Cc1cc(/C=C2\C(=N)N3N=C(CC(=O)N4CCOCC4)SC3=NC2=O)c(C)n1-c1ccccc1 was tested, and the Potency was inconclusive: 39.8 µM [inhibitor, single point]. O=C(Nc1nc2c(s1)CCCC2)c1cc(-c2ccc3c(c2)OCO3)nc2ccccc12 was tested, and the Potency was inconclusive: 25.1 µM [inhibitor, single point]. In the case of CCCc1cc(=O)oc2c(CN3CCCC3)c(O)ccc12, the Potency is reported as inconclusive: 17.8 µM [inhibitor, partial curve]. CC(C(=O)Nc1ccc(C(=O)O)c(O)c1)N1C(=O)/C(=C\c2ccco2)SC1=S (stereo unspecified) was tested, and the Potency was inconclusive: 35.5 µM [inhibitor, single point]. In the case of CN(C)S(=O)(=O)c1cccc(-c2nn(-c3ccccc3)cc2/C=C2\SC(=S)NC2=O)c1, the Potency is reported as inconclusive: 39.8 µM [inhibitor, single point]. With COc1ccc(N(CC(=O)NCCSCc2ccco2)S(=O)(=O)c2ccccc2)cc1 the Potency was inconclusive: 35.5 µM [inhibitor, single point]. For CSc1ccc(/C=C(\NC(=O)c2ccco2)C(=O)N2CCCCC2)cc1, the Potency was inconclusive: 0.1 µM [inhibitor, full curve, poor fit]. For COc1cc(/C=C2/C(=O)c3cccc([N+](=O)[O-])c3C2=O)c(Br)cc1O, the Potency was inconclusive: 35.5 µM [inhibitor, single point]. In the case of CC1CCCN(C(=O)c2nn(C)c3c2CSc2ccccc2-3)C1 (stereo unspecified), the Potency is reported as inconclusive: 7.08 µM [inhibitor, single point]. In the case of CCCCC/C=C\C/C=C\C/C=C\CCCCC(=O)O, the Potency is reported as active: 14.1 µM. COc1ccc(N2Cc3cccc(C(=O)NC(C)CCc4ccco4)c3C2=O)cc1 (stereo unspecified) was tested, and the Potency was inconclusive: 20 µM [inhibitor, partial curve]. With COc1ccccc1CNC(=O)c1ccc(CS(=O)(=O)c2ccccc2)o1 the Potency was inconclusive: 0.447 µM [inhibitor, partial curve, poor fit]. With O=C(NCCc1ccccc1)C1COc2ccccc2O1 (stereo unspecified) the Potency was inconclusive: 7.08 µM [inhibitor, single point]. In the case of Cc1ccc2oc(=O)c3cc(C(=O)NCCN4CCN(C)CC4)sc3c2c1, the Potency is reported as “inactive”. O=C(Nc1ccccc1)Nc1cc(S(=O)(=O)N2CCOCC2)ccc1N1CCCC1 was tested, and the Potency was “inactive”. For O=C(COc1ccc(/C=N/NC(=O)c2ccc(O)cc2)cc1)Nc1cccc([N+](=O)[O-])c1, the Potency was inconclusive: 39.8 µM [inhibitor, single point]. Cc1ccsc1/C=C1/CN(C)Cc2c1nc1ccccc1c2C(=O)O was tested, and the Potency was inconclusive: 39.8 µM [inhibitor, single point]. For CC(C)c1ccc(Nc2ncnc3c2c(-c2ccccc2)cn3-c2ccccc2)cc1, the Potency was “inactive”. O=S(=O)(NC1c2cccc3cccc(c23)C1Sc1ncccn1)c1ccccc1 (stereo unspecified) was tested, and the Potency was “inactive”. In the case of COC(=O)C1CCN(C(=O)c2cc(-c3ccco3)nc3ccccc23)CC1, the Potency is reported as active: 8.91 µM. With CCN1C(=O)c2cccc3c(S(=O)(=O)N(C(=O)c4cccnc4)c4ccc(OC)cc4)ccc1c23 the Potency was inconclusive: 39.8 µM [inhibitor, single point]. CC(C)Oc1ccc(CNC(=O)c2ccc3nc(Cc4ccccc4)oc3c2)cc1 was tested, and the Potency was “inactive”. CN(C(=O)Cn1cnc2ccccc2c1=O)C1CCS(=O)(=O)C1 (stereo unspecified) was tested, and the Potency was inconclusive: 0.794 µM [inhibitor, single point]. O=C1NC2(CCCCCC2)C(=O)N1Cc1cccc([N+](=O)[O-])c1 was tested, and the Potency was “inactive”. In the case of O=CN1CCN(C(=O)c2ccc3c(c2)OCO3)CC1, the Potency is reported as inconclusive: 0.1 µM [inhibitor, full curve, poor fit]. For Cc1ccc(C(=O)OCC(=O)N2CCC(c3ccccc3)=N2)cc1, the Potency was “inactive”. Cc1ncc(CO)c(/C=N/NC(=O)c2ccc(O)cc2)c1O was tested, and the Potency was inconclusive: 28.2 µM [inhibitor, single point]. With CC(NC(=O)COC(=O)CCC(=O)c1ccc(F)cc1)c1ccccc1 (stereo unspecified) the Potency was “inactive”. With COc1ccc(Cl)cc1NS(=O)(=O)c1ccc2c(c1)NC(=O)CCS2 the Potency was “inactive”. CC1Cc2nc(SCC(=O)Nc3ccc4c(c3)OCCO4)n(C)c(=O)c2S1 (stereo unspecified) was tested, and the Potency was inconclusive: 39.8 µM [inhibitor, single point]. For Cc1nc(C)c(C(=O)NNC(=O)c2ccc(Br)cc2)s1, the Potency was inconclusive: 4.47 µM [inhibitor, full curve, poor fit]. COc1ccc(N2CCN(C(=O)CCc3ccccc3)CC2)cc1 was tested, and the Potency was inconclusive: 0.891 µM [inhibitor, single point]. For Cc1cccc(C)c1NC(=O)Cn1cc(S(=O)(=O)Cc2ccc(F)cc2)c2ccccc21, the Potency was inconclusive: 39.8 µM [inhibitor, single point]. CC(C)c1ccc(NC2CCCN(C(=O)c3cscn3)C2)cc1 (stereo unspecified) was tested, and the Potency was “inactive”. In the case of Cc1ccc(C(=O)OCC(=O)N2CCC(c3ccccc3)=N2)c(C)c1, the Potency is reported as inconclusive: 0.631 µM [inhibitor, single point]. In the case of COCCn1c(N)c(C(=O)NCC2CCCO2)c2nc3ccccc3nc21 (stereo unspecified), the Potency is reported as inconclusive: 31.6 µM [inhibitor, single point]. For Cc1cc(C(=O)N2CCN(c3cc(Cl)ccc3C)CC2)c2c(C)nn(-c3ccccc3)c2n1, the Potency was inconclusive: 39.8 µM [inhibitor, single point]. With O=C(O)c1cccc(NC(=S)N/N=C/c2ccccc2OCc2cccc(Br)c2)c1 the Potency was inconclusive: 25.1 µM [inhibitor, single point]. With Fc1ccc(OCCCCCn2ccnc2)cc1 the Potency was “inactive”. Cc1cc(C)n(-c2nc(SCCN(C)C)c3c4c(sc3n2)COC(C)(C)C4)n1 was tested, and the Potency was inconclusive: 0.708 µM [inhibitor, full curve]. In the case of CC(=O)Nc1cccc(C(=O)/C=C/c2ccco2)c1, the Potency is reported as “inactive”. In the case of CCc1ccc(NC(=O)CCNC(=O)Cn2cnc3ccccc3c2=O)cc1, the Potency is reported as “inactive”. In the case of COC(=O)CN(c1ccccc1F)S(=O)(=O)c1ccccc1, the Potency is reported as inconclusive: 5.62 µM [inhibitor, single point]. CC(C)NNC(=O)c1ccncc1 was tested, and the Potency was inconclusive: 39.8 µM [inhibitor, single point]. With CC(C(=O)Nc1ccc(S(=O)(=O)N2CCOCC2)cc1)N(c1ccccc1)S(C)(=O)=O (stereo unspecified) the Potency was inconclusive: 39.8 µM [inhibitor, single point]. With CC(=O)Nc1cccc(NC(=O)Nc2cccc3ccccc23)c1 the Potency was “inactive”. CCn1c(=O)c(C(=O)NCCc2ccccc2)c(O)c2ccccc21 was tested, and the Potency was “inactive”. With Cc1ccc(S(=O)(=O)NCC(c2ccc3c(c2)OCO3)N2CCOCC2)cc1 (stereo unspecified) the Potency was “inactive”. For O=[N+]([O-])c1ccc(NNS(=O)(=O)c2cc(Cl)ccc2Cl)nc1, the Potency was “inactive”. With COc1ccc(N2CCN(C(=O)c3ccc4c(c3)NC(=O)C(CSCc3c(F)cccc3Cl)N4)CC2)cc1 (stereo unspecified) the Potency was inconclusive: 31.6 µM [inhibitor, single point]. In the case of Cc1ccc(CSCCNC(=O)CN(c2cccc(C)c2C)S(=O)(=O)c2ccccc2)cc1, the Potency is reported as “inactive”. For Cc1ccc(C)c(C(=O)N2CCC(n3nccc3NC(=O)C3CC3)CC2)c1, the Potency was inconclusive: 39.8 µM [inhibitor, partial curve, poor fit]. With COc1ccc(-n2nnnc2SCC(=O)N2CCCC2)cc1OC the Potency was “inactive”. In the case of S=C(NCCSCc1ccc(Cl)cc1Cl)Nc1ccccc1, the Potency is reported as inconclusive: 7.08 µM [inhibitor, single point]. For CCN(CC)S(=O)(=O)c1ccc(N2CCOCC2)c(NC(=O)CN2C(=O)NC(C)(c3ccccc3)C2=O)c1 (stereo unspecified), the Potency was inconclusive: 4.47 µM [inhibitor, full curve, poor fit]. In the case of Cc1cc(C)c2c(=O)n(CC(=O)Nc3cccc(F)c3)sc2n1, the Potency is reported as inconclusive: 31.6 µM [inhibitor, single point]. For COc1cccc(CNCc2ccco2)c1O, the Potency was “inactive”. In the case of O=C(Nc1nc(-c2ccc(S(=O)(=O)N3CCCCCC3)cc2)cs1)c1cccs1, the Potency is reported as inconclusive: 39.8 µM [inhibitor, single point]. In the case of N#CCc1ccc(OC(=O)c2cnccc2C(F)(F)F)cc1, the Potency is reported as “inactive”. CC/C=C(\NC(C)=O)c1ccccc1 was tested, and the Potency was inconclusive: 31.6 µM [inhibitor, single point]. In the case of COc1ccc(OC)c(Nc2nc(-c3sc(N)nc3C)cs2)c1, the Potency is reported as “inactive”. In the case of Cc1ccc(-c2cc(C(=O)Nc3cccnc3)c3ccccc3n2)o1, the Potency is reported as inconclusive: 15.8 µM [inhibitor, partial curve]. For COc1ccc(OC)c(NC(=O)Cn2cc(C(=O)c3ccc(Cl)cc3)c(=O)c3cc(OC)ccc32)c1, the Potency was “inactive”. O=C1c2cccc(O)c2C(=O)c2c(O)cccc21 was tested, and the Potency was inconclusive: 39.8 µM [inhibitor, single point]. For CC(C)c1ccc(NC(=O)C(Cc2ccccc2)NS(=O)(=O)c2ccc3c(c2)oc(=O)n3C)cc1 (stereo unspecified), the Potency was “inactive”.
